Results deposited as PubChem BioAssay AID1224828 (NIAID, 2016)

Aim: 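Find genes required for NF-kappaB p65 moving into the nucleus after LPS in mouse macrophages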 (primary screen)
System: mouse RAW264.7 G9 macrophage reporter cells (GFP-p65, Tnf promoter-mCherry)
Knock-down reagent: siRNA pool against mouse genes, 100 nM
Time to read-out: 2 days siRNA transfection, then 40 min LPS before fixation
Conditions: LPS (Salmonella minnesota R595) at 10 ng/ml
Measured: 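Imaged p65 nuclear translocation ratio, normalised to the plate median, converted to robust z-scores and averaged across two replicates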
Reading the numbers: p65 translocation robust z-score: higher = more nuclear NF-kappaB p65 after LPS than the plate median; nuclear/cytoplasmic p65 ratio: higher = more nuclear NF-kappaB p65
Rule for the call: 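Called active when z exceeds 3.3 or falls under -1.56 (median of Tlr4 controls), giving activity score of at least 50; no calls for control wells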
Calls: active = hit (p65 shift raised or lowered); inactive = no clear change
This is a random part of about 17,000 reagents. Of all reagents, 762 (4.5%) got an active call. 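Active calls include both raised and lowered p65 entry, mostly lowered; wells with fewer than 50 cells lack a z-score.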 The raw values are shown without normalisation. A number with no mark means an inactive call.

Against Vma12 (GeneID 195040) the deposit lists p65 translocation robust z-score 0.98; nuclear/cytoplasmic p65 ratio, rep 1 = 1.75; nuclear/cytoplasmic p65 ratio, rep 2 = 1.84; low cell count flag enough cells to score.
After knock-down of Immp2l (GeneID 93757), the record shows nuclear/cytoplasmic p65 ratio, rep 1 = 1.78; nuclear/cytoplasmic p65 ratio, rep 2 = 1.48; low cell count flag fewer than 50 cells per well; well left out of scoring.
Ankrd61 (GeneID 66729) gave nuclear/cytoplasmic p65 ratio, rep 1 = 2.65; nuclear/cytoplasmic p65 ratio, rep 2 = 1.28; low cell count flag fewer than 50 cells per well; well left out of scoring.
With knock-down of Or12e1 (GeneID 258655) the results were p65 translocation robust z-score 1.39; nuclear/cytoplasmic p65 ratio, rep 1 = 1.8; nuclear/cytoplasmic p65 ratio, rep 2 = 1.7; low cell count flag enough cells to score.
Against Ces4a (GeneID 234677) the deposit lists p65 translocation robust z-score -1.16; nuclear/cytoplasmic p65 ratio, rep 1 = 1.4; nuclear/cytoplasmic p65 ratio, rep 2 = 1.66; low cell count flag enough cells to score.
After knock-down of Haus3 (GeneID 231123) the results were p65 translocation robust z-score 1.39; nuclear/cytoplasmic p65 ratio, rep 1 = 1.81; nuclear/cytoplasmic p65 ratio, rep 2 = 2.05; low cell count flag enough cells to score.
H1f9 (GeneID 54388) gave p65 translocation robust z-score 0.59; nuclear/cytoplasmic p65 ratio, rep 1 = 1.82; nuclear/cytoplasmic p65 ratio, rep 2 = 1.55; low cell count flag enough cells to score.
After knock-down of Il5ra (GeneID 16192) the results were p65 translocation robust z-score 0.81; nuclear/cytoplasmic p65 ratio, rep 1 = 1.78; nuclear/cytoplasmic p65 ratio, rep 2 = 1.31; low cell count flag enough cells to score.
With knock-down of Cenpk (GeneID 60411), the screen gave nuclear/cytoplasmic p65 ratio, rep 1 = 0.945; nuclear/cytoplasmic p65 ratio, rep 2 = 1.26; low cell count flag fewer than 50 cells per well; well left out of scoring.
After knock-down of Or10g3 (GeneID 258424), the screen gave p65 translocation robust z-score 1.74; nuclear/cytoplasmic p65 ratio, rep 1 = 1.87; nuclear/cytoplasmic p65 ratio, rep 2 = 1.65; low cell count flag enough cells to score.
Gpsm3 (GeneID 106512) scored p65 translocation robust z-score 0.74; nuclear/cytoplasmic p65 ratio, rep 1 = 0; nuclear/cytoplasmic p65 ratio, rep 2 = 1.66; low cell count flag enough cells to score.
Cpa5 (GeneID 74649) scored p65 translocation robust z-score -0.47; nuclear/cytoplasmic p65 ratio, rep 1 = 1.44; nuclear/cytoplasmic p65 ratio, rep 2 = 1.29; low cell count flag enough cells to score.
